According to patent US11421006B2, “T cell epitopes from Cockroach and methods of making and using same” (LA JOLLA INSTITUTE FOR ALLERGY AND IMMUNOLOGY, priority 2012, dated 2022):
Several values for one entry are separate records, joined by “and”; a condition that tells them apart may be missing. Equal values may be shown once.

Test system: Bla g-specific T cells (PBMC)
Test: ELISPOT assays: IL-5, IFN-γ and IL-10 production by in vitro expanded PBMC of Cockroach-allergic donors
Assay type: cell-based, human
Details: individual peptide, one line per responding donor
Procedure: In vitro expansion of Bla g-specific T cells: PBMC were cultured in RPMI 1640 (V Scientific, Tarzana, Calif.) supplemented with 5% human serum (Cellgro, Herndon, Va.) at a density of 2×10^6 cells/ml in 24-well plates (BD Biosciences, San Jose, Calif.) and stimulated with 25 μg/ml German Cockroach (Blatella germanica; Bla g) extract (Greer, Lenoir, N.C.), or individual peptides. […] On day 14, cells were harvested and screened for reactivity against Bla g-specific peptide pools or individual peptides. ELISPOT assays: The production of IL-5, IFN-γ, and IL-10 was analyzed in ELISPOT assays. […] Cells were then incubated at a density of 1×10^5/well either with peptide pools or individual peptides (10 μg/ml), German Cockroach extract (25 μg/ml), PHA (10 μg/ml), or medium (containing 1% DMSO corresponding to the percentage of DMSO in the pools/peptides) as a control. […] Louis, Mo.). Spots were counted by computer-assisted image analysis (Zeiss, KS-ELISPOT reader, Munich, Germany). Each assay was performed in triplicate. The level of statistical significance was determined with a Student's t-test using the mean of triplicate values of the response against relevant pools or individual peptides versus the response against the DMSO control.

In the case of “DLVANQPNLKALREK (listed as Blattella germanica)”, the IFNγ is reported as 177 SFC and 80 SFC and the IL-5 is reported as 0 SFC.
